Assay results reported in the supplement of paper PMC6078165.

Tested on: HCC1143
Test: relative JC-1 red fluorescence (viability) vs pre-drug, coculture with fibroblast (fraction); higher = more viable cancer cells
Experimental: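 JC-1 labelled TNBC cells cocultured 1:1 (1,500 cells each) with CellTrace Violet stained primary or stromal fibroblasts in 384-well plates in FluoroBrite medium, treated with one of 42 anticancer drugs at 0.1, 1, 10 or 100 uM. JC-1 red fluorescence (mitochondrial integrity in cancer cells only) was read by plate reader every 8 h for 72 h. Values are normalised to each well's pre-drug value. The stock of one drug was tenfold lower, so its dose labels may be too high.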

Nc1ccn([C@@H]2O[C@H](CO)[C@@H](O)C2(F)F)c(=O)n1 [Gemcitabine]
relative JC-1 red fluorescence
Conditions	8 h	16 h	24 h	32 h	40 h	48 h	56 h	64 h	72 h
0.1 µM, coculture fibroblast: C12385	0.8509	0.77	0.687	0.61	0.54	0.485	0.444	0.415	0.406
0.1 µM, coculture fibroblast: H6013	0.7511	0.591	0.5653	0.551	0.475	0.4852	0.453	0.4436	0.3936
0.1 µM, coculture fibroblast: H6019	0.7924	0.693	0.6456	0.579	0.536	0.513	0.4675	0.427	0.3957
0.1 µM, coculture fibroblast: H6076	0.8014	0.73	0.687	0.641	0.595	0.591	0.565	0.5395	0.551
0.1 µM, coculture fibroblast: H6231	0.808	0.897	0.771	0.546	0.6346	0.567	0.521	0.477	0.444
0.1 µM, coculture fibroblast: HADF	0.794	0.725	0.692	0.687	0.611	0.596	0.567	0.54	0.476
0.1 µM, coculture fibroblast: HCFa	0.762	0.623	0.591	0.565	0.481	0.448	0.404	0.3684	0.3322
0.1 µM, coculture fibroblast: HCPF	0.774	0.83	0.7439	0.592	0.637	0.592	0.545	0.497	0.481
0.1 µM, coculture fibroblast: HHSteC	0.8102	0.715	0.69	0.66	0.586	0.563	0.527	0.502	0.457
0.1 µM, coculture fibroblast: HMF	0.7988	0.813	0.744	0.661	0.67	0.647	0.594	0.564	0.542
0.1 µM, coculture fibroblast: HPFa	0.9066	0.795	0.739	0.646	0.583	0.54	0.488	0.442	0.402
0.1 µM, coculture fibroblast: HUF	0.8508	0.7147	0.652	0.571	0.51	0.485	0.439	0.402	0.37
0.1 µM, coculture fibroblast: Hs5	0.8416	0.796	0.75	0.728	0.657	0.633	0.608	0.591	0.598
0.1 µM, coculture fibroblast: Hs27A	0.708	0.61	0.592	0.624	0.512	0.515	0.48	0.469	0.477
0.1 µM, coculture fibroblast: Hs343T	0.8014	0.794	0.737	0.6531	0.627	0.591	0.541	0.512	0.478
0.1 µM, coculture fibroblast: WS1	0.8246	0.714	0.655	0.588	0.531	0.488	0.44	0.408	0.388
1 µM, coculture fibroblast: C12385	0.839	0.7253	0.693	0.621	0.556	0.512	0.476	0.436	0.43
1 µM, coculture fibroblast: H6013	0.734	0.645	0.605	0.578	0.511	0.499	0.476	0.468	0.434
1 µM, coculture fibroblast: H6019	0.8014	0.693	0.643	0.567	0.5247	0.492	0.443	0.407	0.376
1 µM, coculture fibroblast: H6076	0.824	0.758	0.735	0.725	0.649	0.636	0.614	0.593	0.603
1 µM, coculture fibroblast: H6231	0.7842	0.796	0.698	0.549	0.5716	0.53029	0.471	0.434	0.4
1 µM, coculture fibroblast: HADF	0.74	0.65	0.625	0.62	0.525	0.501	0.464	0.435	0.401
1 µM, coculture fibroblast: HCFa	0.766	0.6674	0.612	0.575	0.483	0.456	0.4066	0.37	0.324
1 µM, coculture fibroblast: HCPF	0.803	0.7638	0.721	0.638	0.64	0.612	0.563	0.532	0.512
1 µM, coculture fibroblast: HHSteC	0.822	0.702	0.656	0.62	0.546	0.526	0.477	0.45	0.39
1 µM, coculture fibroblast: HMF	0.7876	0.781	0.705	0.617	0.605	0.5736	0.528	0.487	0.453
1 µM, coculture fibroblast: HPFa	0.9032	0.799	0.757	0.664	0.6	0.564	0.505	0.467	0.43
1 µM, coculture fibroblast: HUF	0.86	0.791	0.751	0.676	0.635	0.607	0.541	0.502	0.476
1 µM, coculture fibroblast: Hs5	0.851	0.886	0.8334	0.768	0.712	0.668	0.617	0.591	0.564
1 µM, coculture fibroblast: Hs27A	0.713	0.628	0.5919	0.61037	0.505	0.5	0.474	0.466	0.429
1 µM, coculture fibroblast: Hs343T	0.7775	0.822	0.733	0.6089	0.599	0.55	0.488	0.448	0.405
1 µM, coculture fibroblast: WS1	0.825	0.726	0.712	0.658	0.609	0.583	0.534	0.5	0.482

The reference is the same well before dosing, and untreated signal decays as well.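 Fibroblast labels name human fibroblasts: mostly primary ones from tissues such as uterus (C12385, HUF), lung (H6013), bone (Hs27A), adrenal (HADF) and skin (WS1), plus mammary HMF and breast cancer-associated Hs343T. The cancer cells are basal-like or mesenchymal-like triple-negative breast cancer lines. The paper calls a changed response a hit when it shifts by more than 3x the replicate standard deviation. The tissue of the other fibroblasts is not given here.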
